{"sequences": {"note": "The chains behind the UniProt entries cited, without tags or fusion partners.", "UniProt P06179": "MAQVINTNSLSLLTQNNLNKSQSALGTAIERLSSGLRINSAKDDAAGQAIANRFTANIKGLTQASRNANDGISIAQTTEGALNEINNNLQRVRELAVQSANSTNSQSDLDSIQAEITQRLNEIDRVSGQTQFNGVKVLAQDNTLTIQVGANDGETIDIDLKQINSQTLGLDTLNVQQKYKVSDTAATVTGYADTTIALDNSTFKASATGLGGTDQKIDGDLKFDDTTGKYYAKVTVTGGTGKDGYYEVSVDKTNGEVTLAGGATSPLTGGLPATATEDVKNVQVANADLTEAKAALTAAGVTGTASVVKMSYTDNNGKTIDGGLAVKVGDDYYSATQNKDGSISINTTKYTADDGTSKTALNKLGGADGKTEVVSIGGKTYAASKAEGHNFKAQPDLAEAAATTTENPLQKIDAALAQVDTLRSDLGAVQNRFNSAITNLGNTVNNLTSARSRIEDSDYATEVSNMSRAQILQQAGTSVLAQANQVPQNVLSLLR", "UniProt P0A1J5": "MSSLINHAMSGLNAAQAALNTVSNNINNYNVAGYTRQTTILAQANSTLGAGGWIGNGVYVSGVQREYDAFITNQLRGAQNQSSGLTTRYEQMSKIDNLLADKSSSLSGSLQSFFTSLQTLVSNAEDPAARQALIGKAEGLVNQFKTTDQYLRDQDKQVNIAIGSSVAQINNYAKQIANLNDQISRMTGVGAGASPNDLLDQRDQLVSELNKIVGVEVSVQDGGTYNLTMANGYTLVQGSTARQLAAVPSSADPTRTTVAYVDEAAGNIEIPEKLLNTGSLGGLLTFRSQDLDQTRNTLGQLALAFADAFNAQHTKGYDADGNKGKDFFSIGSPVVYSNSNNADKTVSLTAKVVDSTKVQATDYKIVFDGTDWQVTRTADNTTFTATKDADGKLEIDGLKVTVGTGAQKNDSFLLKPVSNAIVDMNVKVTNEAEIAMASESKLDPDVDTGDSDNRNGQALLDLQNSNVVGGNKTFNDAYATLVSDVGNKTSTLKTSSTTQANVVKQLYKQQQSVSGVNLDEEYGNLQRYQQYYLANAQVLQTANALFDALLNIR"}, "source": "paper doi:10.1101/2024.09.25.614892", "about": "(bioRxiv, 2024)", "key": {"[1]": {"target": "FliC (flagellin) of Salmonella enterica (Salmonella enterica serovar Typhimurium LT2) (UniProt P06179)", "assay": "cryo-EM structure"}, "[2]": {"target": "T1, FlgL (hook-filament junction protein) of Campylobacter jejuni (Campylobacter jejuni)", "T1 sequence": "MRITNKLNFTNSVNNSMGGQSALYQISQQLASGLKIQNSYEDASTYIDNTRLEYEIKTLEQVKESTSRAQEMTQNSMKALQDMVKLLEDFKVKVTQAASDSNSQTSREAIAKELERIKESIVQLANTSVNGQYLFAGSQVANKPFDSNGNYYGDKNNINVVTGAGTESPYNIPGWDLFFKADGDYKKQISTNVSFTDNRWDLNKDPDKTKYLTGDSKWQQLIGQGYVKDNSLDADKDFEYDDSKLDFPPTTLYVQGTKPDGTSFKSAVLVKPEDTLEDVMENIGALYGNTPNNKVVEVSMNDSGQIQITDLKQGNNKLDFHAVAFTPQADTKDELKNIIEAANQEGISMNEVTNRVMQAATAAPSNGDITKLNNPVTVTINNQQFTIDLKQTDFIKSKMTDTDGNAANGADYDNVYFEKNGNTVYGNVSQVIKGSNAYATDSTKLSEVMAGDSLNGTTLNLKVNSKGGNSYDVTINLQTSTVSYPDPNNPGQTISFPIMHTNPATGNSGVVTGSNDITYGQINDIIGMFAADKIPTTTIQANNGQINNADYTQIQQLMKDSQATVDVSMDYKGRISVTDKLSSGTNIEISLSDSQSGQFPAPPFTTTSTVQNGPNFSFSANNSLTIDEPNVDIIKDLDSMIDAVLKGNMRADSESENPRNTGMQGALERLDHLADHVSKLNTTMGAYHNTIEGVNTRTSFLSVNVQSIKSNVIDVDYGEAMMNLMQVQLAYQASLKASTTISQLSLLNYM", "assay": "cryo-EM structure"}}, "note": "No constants are given. Whether binding was seen depends on the method and setting. Some entries that bind do so weakly or less than the wild type. For part of these data: Tags and fused reporters may be left off the sequences shown."}
{"molecule": "FlgK (hook-filament junction protein) of Salmonella enterica (from UniProt P0A1J5 1-553)", "values": [{"measurement": "binding", "setting": "[1]", "result": "no binding"}]}
{"molecule": "FliD (flagellar filament cap protein) of Campylobacter jejuni (natural protein, UniProt Q9PHW6 1-642, looked up) MAFGSLSSLGFGSGVLTQDTIDKLKEAEQKARIDPYTKKIEENTTKQKDLTEIKTKLLSFQTAVSSLADATVFAKRKVVGSISDNPPASLTVNSGVALQSMNINVTQLAQKDVYQSKGLANDGGFVNAQLNGTADLTFFSNGKEYTVTVDKNTTYRDLADKINEASGGEIVAKIVNTGEKGTPYRLTLTSKETGEDSAISFYAGKKDSNGKYQKDINAEKIFDDLGWGLDVSASIDPDKDKKGYGIKDASLHIQTAQNAEFTLDGIKMFRSSNTVTDLGVGMTLTLNKTGEINFDVQQDFEGVTKAMQDLVDAYNDLVTNLNAATDYNSETGTKGTLQGISEVNSIRSSILADLFDSQVVDGTTEDANGNKVNTKVMLSMQDFGLSLNDAGTLSFDSSKFEQKVKEDPDSTESFFSNITKYEDINHTGEVIKTGSLSKYLNSNGGNTNGLEFKPGDFTIVFNNQTYDLSKNSDGTNFKLTGKTEEELLQNLANHINSKGIEGLKVKVESYNQNNVTGFRLNFSGDGSSDFSIKGDANILKELGLSDVNITSKPIEGKGIFSKLKATLQEMTGKDGSITKYDESLTNDIKSLNTSKDSTQAMIDTRYDTMANQWLQYESILNKLNQQLNTVTNMINAANNSNN", "values": [{"measurement": "binding", "setting": "[2]", "result": "binds"}]}
{"molecule": "FlgK (hook-filament junction protein) of Campylobacter jejuni (natural protein, UniProt Q0P8E9 1-608, looked up) MGIFGTLYTGVTGLKASEVQIATTGNNISNANATFYTRQRVVQTTNGYITTGGVQVGTGTAVESIVRLHDEYSYYKLKGASTQLEYTKYMASTLQEIAQRFPDLQNTGILQDLENYNKAWNDFASNPNENATKIALVKASQTLTESVNNTFATLDKIQKKVNDDIKNTVDEINRIGEEIATINKQIYGQEALPTEHANELRDRRDELELTLSKLVSAVASKNEINQDNRLDTTITDPGHQYNLSIEGFSIVDGINFHPLKLDYDDKNKSYSIYYETPDEKVRDLTAKISGGQLGAQLDLRGRNYSKSEGKYEDGIIQGYMDSLDTFAKTMINETNNLYASSAKSSVTSDYLSGLKGDIPLVNYDRTIQPGSFDIVIYDDKGDKKLTKTITIDVNTTMNDIMRQINANTDDNDNKNSNDDVDDHINASFSYDAKTGDGLFQINAKSGFKVAIEDKGTNFAGAFSIGGFFSGTDASDMKVKDSILNDPSTVRASSNGVDSGNDMANKIIQLQYKKVNFYNEDGTIDNLTMEEYYRKLTGKIASDGENNNVVNSSNETLYNSVYSEYQSKSGVNTNEELAALIQYQSSYGAAAKIVSTVDQMLDTLLGLKS", "values": [{"measurement": "binding", "setting": "[2]", "result": "binds"}]}
